From PMC11022886
These are yes or no findings as the source states them, for the method shown. Binding seen in cells or lysates may run through a third protein. A result given as binding can be weak or reduced; the word gives no strength.

The chains behind the UniProt entries cited, without tags or fusion partners.
UniProt Q8BG32: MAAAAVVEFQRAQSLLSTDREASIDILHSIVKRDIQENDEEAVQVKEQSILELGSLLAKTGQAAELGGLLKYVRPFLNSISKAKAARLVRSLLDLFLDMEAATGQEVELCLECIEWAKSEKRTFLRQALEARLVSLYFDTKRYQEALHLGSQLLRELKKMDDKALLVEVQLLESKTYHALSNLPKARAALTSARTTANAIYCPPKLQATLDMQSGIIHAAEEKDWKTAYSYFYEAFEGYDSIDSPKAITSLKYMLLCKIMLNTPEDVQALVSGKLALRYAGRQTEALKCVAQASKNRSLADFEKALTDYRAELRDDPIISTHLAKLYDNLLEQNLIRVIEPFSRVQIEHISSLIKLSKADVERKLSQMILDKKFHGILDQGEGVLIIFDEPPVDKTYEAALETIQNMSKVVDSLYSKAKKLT

Biological target: Full-length mouse PSMD11 with FLAG epitope (mouse) (UniProt Q8BG32)
Assay: co-IP; HEK293T cells expressing each protein in separate cultures, NP-40 lysates mixed, anti-Flag M2 affinity gel, eluted with 3xFlag peptides, immunoblot with anti-HA or anti-FLAG

Substance: Mouse Midn (NM_021565.2) tagged N-terminally with an HA epitope (from UniProt Q3TPJ7-1)
- binding: binds
